Test results from patent US20140212439A1 (Daiichi Sankyo, published 2014).
These are yes or no findings as the source states them, for the method shown. Some results given as binding are weak or reduced against the parent protein; the word gives no strength.

Protein sequences, listed by entry. Tags and fused reporters are not part of them. Lines headed by an entry give the natural chain unless they say otherwise; changes in a name come on top. Residues count along the entry.
UniProt P29317, residues 24-537: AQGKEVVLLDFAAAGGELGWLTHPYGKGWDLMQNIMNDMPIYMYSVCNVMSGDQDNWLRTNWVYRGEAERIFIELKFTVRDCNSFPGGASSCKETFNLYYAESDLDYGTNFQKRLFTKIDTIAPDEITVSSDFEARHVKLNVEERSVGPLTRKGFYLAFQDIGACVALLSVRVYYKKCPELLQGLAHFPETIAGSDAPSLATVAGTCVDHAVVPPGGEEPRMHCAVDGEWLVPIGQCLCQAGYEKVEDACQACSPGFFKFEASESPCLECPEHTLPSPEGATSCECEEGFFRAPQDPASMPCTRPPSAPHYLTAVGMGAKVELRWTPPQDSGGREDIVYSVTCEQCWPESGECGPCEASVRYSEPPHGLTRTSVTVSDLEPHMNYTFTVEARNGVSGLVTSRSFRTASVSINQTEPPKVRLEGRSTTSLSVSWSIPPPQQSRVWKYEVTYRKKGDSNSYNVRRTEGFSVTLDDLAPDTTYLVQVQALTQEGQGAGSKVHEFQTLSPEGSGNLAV

Legend:
[1] = biological target: EPHA2 extracellular region polypeptide (R&D Systems, #3035-A2-100) (UniProt P29317); assay: ELISA, EPHA2 extracellular region coated at 1 µg/ml, antibody at 1.25×10^-4 to 125 µg/ml
[2] = biological target: EPHA2 deletion mutant m2 (amino acid Nos. 426 to 534 of SEQ ID NO: 8) (human) (UniProt P29317); assay: Western blot on EPHA2 deletion mutants, antibody at 2 µg/ml
[3] = biological target: EPHA2 deletion mutant m1 (amino acid Nos. 426 to 540 of SEQ ID NO: 8) (human) (UniProt P29317); assay: as above
[4] = biological target: EPHA2 extracellular region polypeptide (R&D Systems, #3035-A2-100) (UniProt P29317); assay: ELISA on coated EPHA2 extracellular region, anti-human IgG Fc secondary antibody

binding [1] | binding [2] | binding [3] | binding [4] | Binder
binds | binds | binds | – | SH357-1 (antibody produced by hybridoma SH357-1, FERM BP-10837) (antibody, mouse IgG2a, kappa, V domains shown, Mouse monoclonal IgG2a, kappa; also called bSH357-1 (biotinylated form)) VH: QIQLVQSGPELKKPGETVKISCKASGYTFIDYSMHWVKQAPGKGLKWMGWINTYTGEPTYSDDFKGRFAFSLETSASTAYLQISNLKNEDTASYFCATYYRYERDFDYWGQGTTLTVSS VL: DVLMTQTPLSLPVSLGDQASISCRSSQSIVHSSGITYLEWYLQKPGQSPKLLIYKVSNRFSGVPDRFSGSGSGTDFTLKISRVEAEDLGVYYCFQGSHVPYTFGGGTKLEIKR
– | – | – | binds | hSH357-1-T3 (antibody, human IgG1, kappa, V domains shown) VH: QIQLVQSGAEVKKPGASVKVSCKASGYTFIDYSMHWVRQAPGQGLKWMGWINTYTGEPTYSDDFKGRFAFSLDTSTSTAYLELSSLRSEDTAVYYCATYYRYERDFDYWGQGTLVTVSS VL: DVLMTQSPLSLPVTPGEPASISCRSSQSIVHSSGITYLEWYLQKPGQSPQLLIYKVSNRFSGVPDRFSGSGSGTDFTLKISRVEAEDVGVYYCFQGSHVPYTFGQGTKVEIKR
– | – | – | binds | hSH357-1-T1 (antibody, human IgG1, kappa, V domains shown) VH: QVQLVQSGAEVKKPGASVKVSCKASGYTFIDYSMHWVRQAPGQGLEWMGWINTYTGEPTYSDDFKGRVTITADTSTSTAYLELSSLRSEDTAVYYCATYYRYERDFDYWGQGTLVTVSS VL: DIVMTQSPLSLPVTPGEPASISCRSSQSIVHSSGITYLEWYLQKPGQSPQLLIYKVSNRFSGVPDRFSGSGSGTDFTLKISRVEAEDVGVYYCFQGSHVPYTFGQGTKVEIKR

The remaining lines, values behind:

Binder | binding [1] | binding [2] | binding [3] | binding [4]
SH348-1 (antibody produced by hybridoma SH348-1, FERM BP-10836) (antibody, mouse IgG2a, kappa, V domains shown, N-terminal pyroglutamic acid, Mouse monoclonal IgG2a, kappa; The ends of the cDNAs are primer-derived; also called bSH348-1 (biotinylated form)) VH: QIQLVQSGPELKKPGETVKISCKASGYTFTHYSMHWVKQAPGKGLKWMGWINTYTGEPTYADDFKGRFAFSLETSASTAFLQINNLKNEDTATYFCATYYRYERDFDYWGQGTTLTVSS VL: DVLMTQSPLSLPVSLGDQASISCRSSQSIVHSNGNTYLEWYLQKPGQSPKLLIYKVSNRFSGVPDRFSGSGSGTDFTLRISRVEAEDLGVYYCFQGSHVPYTFGGGTKLEIKR | binds | binds | binds | –
hSH348-1-T3 (antibody, human IgG1, kappa, V domains shown) VH: QIQLVQSGAEVKKPGSSVKVSCKASGYTFTHYSMHWVRQAPGQGLKWMGWINTYTGEPTYADDFKGRFAFSLDTSTSTAYLELSSLRSEDTAVYYCATYYRYERDFDYWGQGTLVTVSS VL: DVLMTQSPLSLPVTPGEPASISCRSSQSIVHSNGNTYLEWYLQKPGQSPQLLIYKVSNRFSGVPDRFSGSGSGTDFTLKISRVEAEDVGVYYCFQGSHVPYTFGQGTKVEIKR | – | – | – | binds
hSH348-1-T1 (antibody, human IgG1, kappa, V domains shown) VH: QVQLVQSGAEVKKPGSSVKVSCKASGYTFTHYSMHWVRQAPGQGLEWMGWINTYTGEPTYADDFKGRVTITADTSTSTAYLELSSLRSEDTAVYYCATYYRYERDFDYWGQGTLVTVSS VL: DIVMTQSPLSLPVTPGEPASISCRSSQSIVHSNGNTYLEWYLQKPGQSPQLLIYKVSNRFSGVPDRFSGSGSGTDFTLKISRVEAEDVGVYYCFQGSHVPYTFGQGTKVEIKR | – | – | – | binds
